# Earlier results, collected in US12514805B2, “Composition for suppressing skin irritation or inhibiting sebum secretion” (AMOREPACIFIC CORPORATION, priority 2022, dated 2026).
# At least one compound was matched to its structure with a doubt left.
# Test system: retinoic acid receptor (RAR)
# Conditions: from paper of the Society of Cosmetic Scientists of Korea (2003); cited from earlier work
compound,measurement,value
"CC1=C(/C=C/C(C)=C/C=C/C(C)=C/C(=O)O)C(C)(C)CCC1 [retinoic acid, reference compound]",binding to retinoic acid receptor (specificity),non-specifically binds to a retinoic acid receptor (RAR)
